PubChem BioAssay AID290 (DTP/NCI, 2004)
The list does not hold the whole screen: its compounds were picked by chemical class. Other doses and runs of a compound may be missing. T/C gives the treated animals as a percentage of the vehicle group. Some T/C values are marked as having no survivor count here; that says nothing about deaths at the dose. Schedule codes are those of the source, taken here to give the interval after Q, in days (D) or hours (H), and the number of doses after X.

Test system: mice, P1798 lymphosarcoma sc, survival or tumor weight T/C
Test: NCI In Vivo Anticancer Drug Screen. Data for tumor model P1798 Lymphosarcoma (subcutaneous) in unknown mice
Conditions: T/C endpoint: mean tumor weight, schedule: Q01DX010 (ip), vehicle: saline, evaluation day not shown, higher T/C = larger tumour
Procedure: The antitumor activity of compounds was measured in mice bearing transplantable tumors. Survival or tumor size were measured and the results are expressed as the measurement made in the treated group (T) divided by the measurement made in the vehicle treated control group (C). The tumor model used in this assay is P1798 Lymphosarcoma (subcutaneous) in unknown mice

## CN(CCCl)CCCl
dose: 0.01 mg/kg/injection
  T/C: 84 % of control [survivor count not shown]
dose: 0.02 mg/kg/injection
  T/C: 107 % of control [survivor count not shown]
dose: 0.04 mg/kg/injection
  T/C: 92 % of control [survivor count not shown]
dose: 5.0 micrograms/kg/injection
  T/C: 117 % of control [survivor count not shown]
dose: 20.0 micrograms/kg/injection
  T/C: 125 % of control [survivor count not shown]
